One test relates to rat myocardium. Kind of test: Rodent PET-CT imaging of the myocardium, single bolus and bolus+infusion, with lidocaine block. The format is in vivo. On the procedure: Male Sprague-Dawley rats (400-500 g) were anesthetized with inhalational isoflurane (Forane) (3% in a carrier of 1.5-2 L/min medical oxygen for induction and 2% isoflurane for maintenance of anesthesia during the scan). Lateral tail vein catheters were placed for intravenous (i.v.) injection of the compounds. Two rats were arranged head-to-head in a Triumph Trimodality PET/CT/SPECT scanner (Gamma Medica, Northridge, Calif.) or a MicroPET P4 scanner. […] Dynamic PET acquisition was performed over 45 min and was followed by computed tomography (CT) for anatomic coregistration and attenuation correction. […] Reconstructed images were exported from the scanner in DICOM format along with an anatomic CT for rodent studies. These files were imported to AMIDE and Gaussian filtered (kernel size=15, fwhm=1.5 mm). Regions of interest (ROIs) were drawn manually at the lung and myocardium guided by high-resolution CT structural images and summed PET data. Time-activity-curves (TACs) were exported in terms of decay corrected activity per unit volume at specified time points with gradually increasing intervals.

Amino acid sequences for entries named in this document (tags omitted).
UniProt P15389, whole entry: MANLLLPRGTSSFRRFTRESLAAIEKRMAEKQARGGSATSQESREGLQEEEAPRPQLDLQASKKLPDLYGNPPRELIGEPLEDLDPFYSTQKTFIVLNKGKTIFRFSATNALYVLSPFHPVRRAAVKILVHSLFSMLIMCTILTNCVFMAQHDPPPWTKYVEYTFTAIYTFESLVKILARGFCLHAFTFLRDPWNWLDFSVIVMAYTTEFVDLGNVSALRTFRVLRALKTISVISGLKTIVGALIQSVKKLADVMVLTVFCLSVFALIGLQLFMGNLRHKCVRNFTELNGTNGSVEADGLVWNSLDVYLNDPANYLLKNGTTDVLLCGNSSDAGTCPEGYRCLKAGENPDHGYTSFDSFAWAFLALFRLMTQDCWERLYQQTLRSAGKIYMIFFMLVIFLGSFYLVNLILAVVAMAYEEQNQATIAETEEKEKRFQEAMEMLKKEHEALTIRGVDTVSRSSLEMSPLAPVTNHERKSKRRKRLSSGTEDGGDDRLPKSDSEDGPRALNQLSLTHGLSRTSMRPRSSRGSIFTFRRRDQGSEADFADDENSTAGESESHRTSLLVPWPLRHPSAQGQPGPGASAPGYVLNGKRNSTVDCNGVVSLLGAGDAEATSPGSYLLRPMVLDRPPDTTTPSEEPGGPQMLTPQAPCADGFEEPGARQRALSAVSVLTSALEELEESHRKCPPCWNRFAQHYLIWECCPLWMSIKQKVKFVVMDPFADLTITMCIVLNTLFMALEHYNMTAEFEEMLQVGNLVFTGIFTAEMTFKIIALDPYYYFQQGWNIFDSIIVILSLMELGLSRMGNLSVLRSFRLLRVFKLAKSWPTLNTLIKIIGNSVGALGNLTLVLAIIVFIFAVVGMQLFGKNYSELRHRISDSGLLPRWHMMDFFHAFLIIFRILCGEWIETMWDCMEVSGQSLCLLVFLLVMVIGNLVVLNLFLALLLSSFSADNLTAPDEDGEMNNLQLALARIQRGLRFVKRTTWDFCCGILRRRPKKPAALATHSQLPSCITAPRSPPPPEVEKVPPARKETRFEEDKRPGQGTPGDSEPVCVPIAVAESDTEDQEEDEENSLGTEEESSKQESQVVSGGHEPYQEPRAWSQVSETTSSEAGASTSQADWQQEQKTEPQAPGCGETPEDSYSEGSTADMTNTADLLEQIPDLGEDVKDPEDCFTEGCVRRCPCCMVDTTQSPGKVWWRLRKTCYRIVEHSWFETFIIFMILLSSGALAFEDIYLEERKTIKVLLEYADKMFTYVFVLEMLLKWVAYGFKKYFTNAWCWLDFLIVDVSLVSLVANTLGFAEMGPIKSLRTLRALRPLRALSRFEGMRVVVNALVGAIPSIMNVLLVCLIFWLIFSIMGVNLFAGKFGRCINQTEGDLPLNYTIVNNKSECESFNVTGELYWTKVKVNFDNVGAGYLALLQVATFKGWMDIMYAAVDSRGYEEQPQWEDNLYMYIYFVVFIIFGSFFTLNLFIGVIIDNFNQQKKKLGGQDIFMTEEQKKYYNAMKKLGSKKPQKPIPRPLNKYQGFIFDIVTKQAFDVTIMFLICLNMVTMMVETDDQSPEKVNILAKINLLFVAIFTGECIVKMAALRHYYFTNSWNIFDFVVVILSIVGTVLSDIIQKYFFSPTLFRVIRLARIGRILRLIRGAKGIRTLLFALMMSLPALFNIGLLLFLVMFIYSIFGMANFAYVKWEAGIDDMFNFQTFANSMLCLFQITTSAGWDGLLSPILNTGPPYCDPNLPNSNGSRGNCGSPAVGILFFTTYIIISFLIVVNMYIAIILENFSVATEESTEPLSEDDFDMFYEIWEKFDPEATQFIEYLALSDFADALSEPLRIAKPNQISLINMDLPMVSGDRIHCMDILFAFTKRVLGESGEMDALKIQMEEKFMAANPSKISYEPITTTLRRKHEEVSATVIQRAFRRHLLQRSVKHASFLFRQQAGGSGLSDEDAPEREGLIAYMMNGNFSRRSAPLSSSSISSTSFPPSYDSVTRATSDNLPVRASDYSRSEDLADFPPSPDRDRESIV

A further test has as its target T1, SCN5A (Rattus norvegicus, UniProt P15389).
T1 construct: Heart sections ([…] thickness) were prepared using a −20° C. cryostat and thaw-mounted onto gelatin-coated slides; from tissue; host or cells: rat heart (myocardium) cryosections
Kind of test: Ex vivo F-18 autoradiography of rat myocardium. Format: binding. The conditions noted are these: competition ligands at the same concentration against the 18F tracer. How it is done: Heart sections ([…] thickness) were prepared using a −20° C. cryostat and thaw-mounted onto gelatin-coated slides. The slides were stored at −20° C. until the day of the experiment. […] Individual images of sections were cropped using ImageJ with no additional adjustment to color levels/thresholds. The experimental setup was designed such that both baseline and competition experiments contained the same amount of radioactivity and were imaged on the same screen. […] For variation of washing times, the incubation was held constant at 15 min.

The text below walks through data of patent publication US11673855B2, “Voltage gated sodium channel imaging agents” (The General Hospital Corporation, priority 2017, dated 2023).

SMILES strings stand for the structures.

With `CCN(CC)CC(=O)Nc1c(C)cccc1C` [lidocaine], the “signal to background ratio (myocardium to lung)” value in the test on rat myocardium (5.0 mg/kg lidocaine i.v. 5 min before tracer, complete block) was 1. The IC50 in the test on rat myocardium (Rattus norvegicus, assuming blood volume 30 mL, BV=0.06×BW+0.77, read-out: in vivo IC50 converted to concentration) came out at 40 µM. Also, on SCN5A, the “level of non-specific / non-displaceable binding (BNS) as competition ligand” value is recorded as “same level of non-displaceable binding”.
